Measured values taken from patent US20030053952A1, “Therapeutic tool for vascular diseases” (Yasumi UCHIDA, priority 2001, published 2003).
For at least one compound, name, drawing or mass did not settle the structure.

Tests used:
[1] = test system: vascular progenitor cells; assay: Local delivery of dyes by porous balloon into balloon-injured coronary artery; count of migrated vascular progenitor cells; assay type: in vivo, beagle dogs; conditions: dogs
Description: Adult beagle dogs of either sexes weighing from 7 to 12 kg were anesthetized with pentobarbital sodium (25-30 mg/kg, i.v.) and the trachea was intubated for artificial respiration with air. The right side of the neck was longitudinally incised to expose the right common carotid artery and an 8 F sheath was introduced, through which an 8F guiding catheter was introduced into the left coronary ostium for angiography. After angiography, a balloon catheter (2.5 mm×20 mm) was introduced through the guiding catheter into the middle to distal segment of either the anterior descending or circumflex artery. Then, the balloon was inflated at 9 atms to
dilate the segment to induced disruption of the endothelium and internal elastic lamina. The balloon catheter was replaced by a porous balloon catheter (3 mm×20 mm) with multiple pores in the balloon (Clinical Supply Co, Gifu, Japan) for local delivery of dyes. Thereafter, 0.2 ml of 5% Evans blue saline solution was injected through the porous balloon into the dilated segment at 3 atms in 6 dogs and 0.5 ml of 5% Ethidium bromide saline solution
was injected similarly in 5 dogs. […] The dilated coronary segment and its surrounding tissues were removed and sliced, vascular progenitor cells were stained with beta-smooth muscle actin antibody (DAKO EPOS, Glostrup, Denmark) and the number of vascular progenitor cells/250×250 μm^2 was counted.

[2] = test system: vascular progenitor cells; assay: Implantation of dye-eluting stents into canine coronary artery (percentage stenosis, angioscopy, progenitor cell count); assay type: in vivo, beagle dogs; conditions: angiography, 4 weeks after implantation of dye-coated stents, vs stents without dye
Description: Beagle dogs of either sex was anesthetized with pentobarbital sodium (25 mg/kg, i.v.) and trachea was intubated for artificial respiration with air. The right side of the neck was incised longitudinally to expose right common carotid artery. An 8F sheath was introduced into the artery through which an 8F guiding catheter was introduced into the left coronary artery. After coronary angiography, a balloon catheter clinically used for PTCA was introduced to dilate anterior descending artery. Then, a balloon catheter with a dye-eluting stent on it was introduced into the dilated segment of left anterior descending artery and it was inflated at 9 atms to implant the stent. After recovery from anesthesia, the dogs were cared according the guideline of Jikei University School of Medicine. One month later, the dogs were anesthetized again and coronary angiography and angioscopy (Uchida Y: Coronary Angioscopy, Futura Publishing Co, NY, 2000) were performed to examine the changes in the stented coronary segment. […] Thereafter, the dogs were sacrificed with intracoronary pentobarbital and the heart was removed. […]
The stented coronary segment was removed and cut into slice in 5 μm in thickness. The slices were stained with beta-actin antibody and the number of vascular progenitor cells per unit area was counted and was compared between the dye and control groups.

## CC[n+]1c(-c2ccccc2)c2cc(N)ccc2c2ccc(N)cc21 [Ethidium bromide]
[1]
  Migration of circulating vascular progenitor cells into the injured coronary wall: inhibit migration
[2]
  Percentage stenosis of the stented coronary segments: significantly smaller
